A short description of the assay: qHTS Assay for Lipid Storage Modulators in Drosophila S3 Cells.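 For cell number change: cells counted by Cell Tracker Red CMTPX staining in the red channel.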 As to conditions: BODIPY lipid droplet fluorescence, 18-24 h; for cell number change: measured here: cell count max response, cells fed with added oleic acid. In outline: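 Drosophila S3 cells loaded with oleic acid (400 uM, as added) and compounds at several concentrations; lipid droplets imaged by 488-nm laser-scanning cytometry, 500–530 nm intensity and object ratio to cell channel. Percent activity normalized to 20 uM Triacsin C.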

Where [1] appears, read: measured here: lipid fluorescence (Fed channel) AC50, cells fed with added oleic acid.
Setting [2] is: measured here: cell number channel AC50, cells fed with added oleic acid.

The other results are listed elsewhere or left out. Further columns of the screen follow, without active or inactive calls. The list favours compounds with an active or inconclusive main result. Potencies come from curve fits of mixed quality, noted in brackets.

On to `CC(Sc1ncn[nH]1)C(=O)Nc1cc(C(F)(F)F)ccc1Cl` (centres undefined), for which the cell number change was -24.5%. Besides, the AC50 under setting [1] is 0.058 µM [falling, full curve, poor fit].

In the case of `CCC(Sc1nc(-c2ccccc2)c(-c2ccccc2)[nH]1)C(=O)O` (centres undefined), the cell number change was found to be 14.9%. In addition, under setting [2], the AC50 was 1.03 µM [rising, full curve, poor fit].

On to `CN1CCN(NC(=S)Nc2ccc(OC(F)F)cc2)CC1`, for which, under setting [1], the AC50 was 0.58 µM [falling, single point].

Turning to `Cc1ccc(C(=O)Cn2nnc(-c3cccs3)n2)cc1`, the cell number change was found to be 16.1%. Moreover, under setting [1], the AC50 was 16.4 µM [rising, single point].

For `CN1CCN(NC(=O)c2cccc3ccccc23)CC1`, the cell number change was found to be 45.6%. Further, under setting [2], the AC50 is 4.61 µM [rising, full curve]. The AC50 under setting [1] is 16.4 µM [rising, single point].

On to `CC(=O)Nc1ccc(S(=O)(=O)NCC(=O)OCc2cc(=O)oc3ccc4ccccc4c23)cc1`, for which the cell number change is 6.74%. Moreover, under setting [1], the AC50 is 0.651 µM [rising, partial curve].

On to `Cc1ccc(C2c3c(oc4ccccc4c3=O)C(=O)N2c2nnc(C(C)C)s2)o1` (centres undefined), for which the cell number change is -38.8%. For the same molecule, the AC50 under setting [2] was 0.326 µM [falling, full curve, poor fit].

Consider `O=C(CCC(=O)N1CCOCC1)NCc1cccc(C(F)(F)F)c1`, for which the cell number change came to 22.1%. In addition, the AC50 under setting [1] was 2.31 µM [rising, single point].

In the case of `O=C(Nc1ccnn1C1CCN(Cc2cccc(O)c2)CC1)C1CCCC1`, the cell number change was -12.4%. The AC50 under setting [1] was 29.1 µM [falling, single point].

On to `O=C1C(Oc2ccccc2)C(c2cccs2)N1Cc1ccc2c(c1)OCO2` (centres undefined), for which the AC50 under setting [1] is 0.82 µM [rising, single point].

Take `COc1cc(COCC(O)CN2CCc3ccccc3C2)cc(OC)c1OC` (centres undefined): under setting [2], the concentration at half-maximal activity (AC50) was 1.03 µM [falling, full curve, poor fit].

On to `Cc1ccc(CONC(=O)c2ccccc2Cl)cc1`, for which the cell number change was -14.1%. Further, the AC50 under setting [1] is 14.6 µM [falling, single point].

In the case of `CCc1nonc1NC(=O)c1oc2ccc(Cl)cc2c1C`, the cell number change amounted to 20.9%.

As to `CC(C)NS(=O)(=O)c1ccc(Oc2ncc(C(F)(F)F)cc2Cl)cc1`, the cell number change came out at 2.73%. Besides, under setting [2], the concentration at half-maximal activity (AC50) is 0.731 µM [falling, full curve]. Moreover, under setting [1], the AC50 was 5.8 µM [falling, single point].

With `Cc1ccc(C(C)C)c(OCc2nn(CC(=O)c3ccc(Cl)cc3)c3[n+]2CCCCC3)c1`, the cell number change was -70.3%. Moreover, under setting [2], the AC50 was 25.9 µM [falling, partial curve, poor fit]. Besides, the AC50 under setting [1] was 2.06 µM [falling, partial curve].

With `O=C(CSc1ncnc2c1oc1ccccc12)N1CCc2ccccc2C1`, the cell number change is 4.56%. For the same molecule, the AC50 under setting [2] was 1.46 µM [rising, partial curve]. Moreover, the half-maximal activity concentration (AC50) under setting [1] was 2.31 µM [rising, partial curve].

On to `CC1Cc2cc(S(=O)(=O)NCc3ccccc3)ccc2N1C(=O)C1CCC1` (centres undefined), for which the cell number change came to 69.8%. Under setting [2], the AC50 is 29.1 µM [rising, single point].

On to `C=CCn1c(SCc2ccc(C(=O)O)cc2)nc2sc(C)c(C)c2c1=O`, for which the cell number change turned out to be 5.61%. In addition, under setting [2], the AC50 is 6.51 µM [rising, single point].

On to `CCOC(=O)c1c(NC(=O)C2(C)Cc3ccccc3C(=O)O2)sc2c1CCCC2` (centres undefined), for which the cell number change turned out to be 6.74%. Under setting [2], the concentration at half-maximal activity (AC50) is 6.51 µM [rising, single point]. Further, the AC50 under setting [1] was 29.1 µM [rising, single point].

Take `COC(=O)COc1cccc(NC(=O)COc2ccccc2)c1`: the cell number change is -94.5%. Moreover, the AC50 under setting [2] was 29.1 µM [falling, single point].

Turning to `COc1ccc(C(=O)O)cc1S(=O)(=O)Nc1ccc(Oc2ccccc2)cc1`, the cell number change stood at 8.68%. Also, under setting [1], the AC50 was 0.731 µM [falling, single point].

Regarding `CC1=C(C(=O)OC(C)C)C(c2coc3ccccc3c2=O)C2=C(CCCC2=O)N1` (centres undefined), the cell number change was -8.01%. Besides, the concentration at half-maximal activity (AC50) under setting [1] was 6.51 µM [rising, partial curve].

Turning to `CC(C(=O)NC1CCCCC1)N(Cc1ccccc1)C(=O)c1snc(C(N)=O)c1N` (centres undefined), the cell number change turned out to be 6.09%. Besides, the half-maximal activity concentration (AC50) under setting [1] is 0.58 µM [falling, single point].

On to `Cn1cc(CN2CCC(n3nccc3NC(=O)CCCc3ccccc3)CC2)cn1`, for which the cell number change was -14.7%. Under setting [2], the AC50 was 0.116 µM [falling, full curve, poor fit]. Moreover, under setting [1], the AC50 is 29.1 µM [rising, single point].

For `CCN(CC)CCN(C(=O)c1ccc2ccccc2c1)c1nc2cc3c(cc2s1)OCO3`, the cell number change was found to be 29.7%. Also, the concentration at half-maximal activity (AC50) under setting [1] was 1.46 µM [rising, partial curve, poor fit].

On to `CCC(=O)c1c[nH]c(C(=O)NCc2cccnc2)c1`, for which the cell number change is -36.8%. Besides, under setting [2], the concentration at half-maximal activity (AC50) was 7.31 µM [falling, partial curve]. Besides, the half-maximal activity concentration (AC50) under setting [1] is 13 µM [falling, partial curve].

Consider `COc1ccc(CNc2nc3c(c(=O)[nH]c(=O)n3C)n2CCCc2ccccc2)cc1`, for which the cell number change is 4.37%. For the same molecule, the half-maximal activity concentration (AC50) under setting [2] was 0.411 µM [rising, full curve, poor fit]. Further, the concentration at half-maximal activity (AC50) under setting [1] was 0.731 µM [rising, full curve, poor fit].

`COc1ccc(NC(=O)N2CCN(S(C)(=O)=O)CC2)cc1`: the cell number change was -37.8%. Further, the concentration at half-maximal activity (AC50) under setting [2] is 35.5 µM [falling, single point].

`Cc1ccc(C(=O)Nc2ccc3c(c2)OCO3)cc1S(=O)(=O)N1CCOCC1`: the cell number change was 10.2%. Also, the AC50 under setting [1] is 1.64 µM [rising, full curve].

On to `O=C(CC12CC3CC(CC(C3)C1)C2)Nc1ccc2c(c1)COC2=O`, for which the cell number change was -23.6%. Besides, under setting [1], the concentration at half-maximal activity (AC50) was 29.1 µM [falling, single point].

Regarding `O=C(Nc1ccnn1C1CCN(Cc2cccc(OCCO)c2)CC1)C1CCOC1` (centres undefined), the cell number change was determined as 14.6%. For the same molecule, under setting [1], the AC50 was 29.1 µM [rising, single point].

Consider `CC1=C(C(N)=O)C(c2ccccn2)n2nc(SCc3ccccc3)nc2N1` (centres undefined), for which the cell number change came out at 14.5%. Further, the AC50 under setting [1] was 0.058 µM [rising, full curve, poor fit].

Take `CCOC(=O)c1ccc(NC(=S)N(CCCN2CCCC(C)C2)Cc2cccs2)cc1` (centres undefined): the cell number change amounted to 56.3%. The concentration at half-maximal activity (AC50) under setting [2] is 6.51 µM [rising, single point]. For the same molecule, the half-maximal activity concentration (AC50) under setting [1] was 0.116 µM [falling, full curve, poor fit].

As for `Cc1cc(C)nc(NC(=O)/C=C/c2ccc(Cl)cc2Cl)c1`, the cell number change is -39.4%. The half-maximal activity concentration (AC50) under setting [2] was 32.6 µM [falling, partial curve, poor fit].

With `Cc1ccccc1NS(=O)(=O)c1ccc(NC(=O)c2ccco2)cc1`, the AC50 under setting [2] was 6.51 µM [rising, single point] and the AC50 under setting [1] was 0.291 µM [rising, full curve].

Regarding `CS(=O)(=O)N(CC(=O)N1CCCCC1)C1CCCCC1`, the cell number change is -31%. The AC50 under setting [2] was 7.31 µM [falling, single point]. Further, the concentration at half-maximal activity (AC50) under setting [1] is 6.51 µM [falling, single point].

In the case of `S=C(NCCSCc1c(Cl)cccc1Cl)Nc1ccccc1`, the cell number change amounted to 3.86%.

For the molecule `CCn1nc(C(=O)N2CCN(Cc3nc4ccccc4s3)CC2)c2ccccc2c1=O`, the cell number change is -16.5%. Also, under setting [1], the AC50 is 0.82 µM [falling, full curve, poor fit].

As to `O=[N+]([O-])c1ccc(N2CCN(S(=O)(=O)c3ccc4ccccc4c3)CC2)cc1NCc1ccco1`, the AC50 runs as follows: under setting [2], 0.92 µM [rising, partial curve]; under setting [1], 6.51 µM [rising, single point].

As for `Cc1cc(C)nc(N2CCCC(C(=O)Nc3nc4ccc(S(C)(=O)=O)cc4s3)C2)n1` (centres undefined), under setting [2], the AC50 is 6.51 µM [rising, single point].

Regarding `COc1ccc(-n2nc(C(=O)NCC(=O)N3CCCCCC3)c3ccccc3c2=O)cc1OC`, the cell number change was -0.794%. Under setting [1], the AC50 was 29.1 µM [falling, single point].

For the molecule `COc1ccc(NC(=O)c2sc3ncn(CC(=O)N4CCN(c5ccccn5)CC4)c(=O)c3c2C)c(OC)c1`, the cell number change is -22.4%. Besides, the AC50 under setting [1] was 20.6 µM [rising, partial curve].

For the molecule `O=C(Nc1ccccc1C(F)(F)F)c1cc2ncc(CCCl)cn2n1`, the cell number change is -4.71%. The half-maximal activity concentration (AC50) under setting [1] was 3.26 µM [rising, partial curve].

Regarding `O=C(Nc1ccc(Cl)cc1)Nc1nnc(CSc2ccc(Cl)cc2)s1`, the cell number change is 15.5%. Also, the half-maximal activity concentration (AC50) under setting [1] was 0.461 µM [rising, full curve, poor fit].

As for `COc1ccc(N2CCCn3c2nc2c3c(=O)n(Cc3ccccc3F)c(=O)n2C)cc1`, the cell number change came out at 18.5%. Besides, under setting [1], the AC50 was 1.03 µM [rising, full curve, poor fit].

`COc1ccccc1NC(=S)NCc1cccnc1`: the cell number change is 47.1%. Further, under setting [2], the half-maximal activity concentration (AC50) was 20.6 µM [rising, single point]. Further, the concentration at half-maximal activity (AC50) under setting [1] was 29.1 µM [rising, partial curve].

On to `Cc1nc2cc(-c3cccc(F)c3)nn2c(N2CCN(C(=O)c3ccco3)CC2)c1C`, for which the AC50 is 6.51 µM [rising, single point] under setting [2] and 6.51 µM [rising, single point] under setting [1].

With `CCN(C(=O)COc1cc(OC)ccc1C(C)=O)C1CCS(=O)(=O)C1` (centres undefined), the cell number change is 26.5%. The AC50 under setting [1] was 1.84 µM [falling, full curve, poor fit].

Regarding `CCN(CC)CCCN1C(=O)C2C(C(=O)Nc3ccc(C(C)C)cc3)C3C=CC2(O3)C1C(=O)NC1CCCCC1` (centres undefined), the half-maximal activity concentration (AC50) under setting [1] is 25.9 µM [falling, partial curve].

In the case of `CN(Cc1ccccc1)c1ncnc2sccc12`, the cell number change is -39%. The half-maximal activity concentration (AC50) under setting [2] was 29.1 µM [falling, single point].

In the case of `Cc1nc(CSc2ccc(Cl)cc2)cc(N2CCOCC2)n1`, the cell number change was 4.58%. Moreover, the AC50 under setting [1] is 5.17 µM [rising, partial curve].

Take `O=C(CSc1nc(C(F)(F)F)cc(=O)[nH]1)N1CCC(Cc2ccccc2)CC1`: the cell number change was found to be 7.39%. Also, the AC50 under setting [2] is 0.651 µM [falling, single point]. Also, the AC50 under setting [1] is 0.517 µM [falling, full curve].

On to `CCOC(=O)/C(C(=Nc1ccccc1)Nc1ccccc1)=C(\C)O`, for which the cell number change is 0.246%. The AC50 under setting [1] was 0.411 µM [rising, full curve, poor fit].

As for `COc1ccc(CC(=O)c2ccc(OC)c(OC)c2C)cc1OC`, the cell number change turned out to be 31.6%. The half-maximal activity concentration (AC50) under setting [2] is 14.6 µM [rising, single point]. Moreover, the AC50 under setting [1] was 29.1 µM [rising, single point].

The term AC50 denotes the midpoint of the concentration-response curve, whichever way the signal moves. Low values mean activity at low concentration, high ones activity only at high concentration.
